Measured values: article PMC9327688
Results are given in words; binding and its absence hold for the method and conditions named. In cells and extracts the contact can be indirect. Binding calls can cover weak binding; strength is not graded here.

Target: ASC (apoptosis-associated speck-like protein containing a CARD) (pig (endogenous in PAMs))
Test: co-IP; lysates of PAMs infected with PRRSV (MOI = 1, indicated times) or primed with LPS and treated with nigericin; immunoprecipitation with anti-ASC antibody and Dynabeads protein G, 1 h at room temperature; immunoblot for NLRP3, CASP1 and ASC

binding: binds
B1: caspase-1 (CASP1) (enzyme, UniProt Q9N2I1 1-404)
chain: MADKVLKEKRRLFVRSVAMGTINGLLDELLETRVLNQEEVEIVRGENATVMDKARALIDSVIRKGPQACQICINHICGDDPHLAGVLELSTGSQSGKCLTVQESQAVVPPFPAPQTVQDNPVKPASSEPRGSLKLCPPDIAQRLWKEKSAEIYPIMGKSIRTRLALIICNTEFENLPRRDGADVDIRDMKILLEDLGYSVDVRENLTASDMAIELKAFAARPEHKSSDSTFLVLMSHGIQAGICGKKYSEEVPDVLEVNTVFQILNTLNCPSLKDKPKVIIIQACRGEKQGVVWIKDSVGPSGNSSLLAAEDFEYDAIKKAHIEKDFIAFCSSTPDNVSWRHPLLGSLFIIKLIKILQEHAWSCGLEEIFRKVRFSFELADGRAQMPTAERVTLTRSFYLFPGH
